Experimental data published in PubChem BioAssay AID248 (DTP/NCI, 2004).
The list is a part of this screen's results and no random one: it is rich in T/C values a quarter to a half above the control, in often repeated tests (any T/C) and in doses without a T/C. Other doses and runs of a compound stand elsewhere. T/C is the treated group as % of the vehicle group. Some doses have a count of surviving animals in place of a T/C: the source files T/C as zero there, which appears to mark a toxic dose or a test without result, not a measured value. Some survivor counts are full or nearly so, which does not show that the dose was tolerated: the source hardly ever lists a survival T/C far under the control, and the zero likely stands for such cases as well. Counts of survivors are from the toxicity check (mostly the fifth day) where no day follows; animals may have died later. Schedule codes are those of the source, taken here to give the interval after Q, in days (D) or hours (H), and the number of doses after X. Some schedule codes hold Z or #, which are not explained here. Some doses were run more than once; the results are listed from low to high. Where survival is the endpoint, this PubChem deposit counts one and a half times the control or more as active, and values a quarter to a half above the control carry no call in these data; other NCI protocols may use other cut-offs.

System: L1210 leukemia ip in BDF1 mice, survival T/C
Assay: NCI In Vivo Anticancer Drug Screen. Data for tumor model L1210 Leukemia (intraperitoneal) in B6D2F1 (BDF1) mice
Conditions: T/C endpoint: mean survival time, higher T/C = longer survival
[1] = dose: 200.0 mg/kg/injection, schedule: Q04DX003 (ip), vehicle: saline
[2] = dose: 400.0 mg/kg/injection, schedule: Q01DX001 (ip), vehicle: Klucel (hydroxypropylcellulose) (HPC)
[3] = dose: 400.0 mg/kg/injection, schedule: Q01DX009 (ip), vehicle: Klucel (hydroxypropylcellulose) (HPC)
[4] = dose: 12.5 mg/kg/injection, schedule: Q01DX009 (ip), vehicle: saline
[5] = dose: 25.0 mg/kg/injection, schedule: Q01DX009 (ip), vehicle: saline
[6] = dose: 50.0 mg/kg/injection, schedule: Q01DX009 (ip), vehicle: saline
[7] = dose: 100.0 mg/kg/injection, schedule: Q01DX009 (ip), vehicle: saline
[8] = dose: 400.0 mg/kg/injection, schedule: Q04DX003 (ip), vehicle: saline with Tween-80
[9] = dose: 200.0 mg/kg/injection, schedule: Q01DX001 (ip), vehicle: saline
[10] = dose: 400.0 mg/kg/injection, schedule: Q01DX001 (ip), vehicle: saline
[11] = dose: 200.0 mg/kg/injection, schedule: Q04DX002 (ip), vehicle: saline
[12] = dose: 400.0 mg/kg/injection, schedule: Q04DX002 (ip), vehicle: saline
[13] = dose: 400.0 mg/kg/injection, schedule: Q04DX003 (ip), vehicle: Klucel (hydroxypropylcellulose) (HPC)
[14] = dose: 400.0 mg/kg/injection, schedule: Q01DX009 (ip), vehicle: saline

O=C(Sc1ccccc1)C(Cl)(Cl)Cl
survivor count (dose: 150.0 mg/kg/injection, schedule: Q01DX009 (ip), vehicle: acetone): 5 of 6
survivor count [1]: 6 of 6
survivor count (dose: 225.0 mg/kg/injection, schedule: Q01DX009 (ip), vehicle: acetone): 0 of 6
survivor count (dose: 335.0 mg/kg/injection, schedule: Q01DX009 (ip), vehicle: acetone): 0 of 6
survivor count (dose: 400.0 mg/kg/injection, schedule: Q01DX001 (ip), vehicle: acetone): 0 of 6

c1ccc2[nH]c(C(=C(c3nc4ccccc4[nH]3)c3nc4ccccc4[nH]3)c3nc4ccccc4[nH]3)nc2c1
survivor count [2]: 6 of 6

C/C=C/Sc1ccccc1C(=O)O
survivor count (dose: 400.0 mg/kg/injection, schedule: Q01DX001 (ip), vehicle: carboxymethylcellulose (CMC)): 2 of 6

CNC(Cc1ccccc1)c1ccc(OC)cc1 (stereo not drawn)
survivor count [3]: 0 of 6

c1cc(N2CCOCC2)ccc1Cc1ccc(N2CCOCC2)cc1
survivor count [3]: 4 of 6

CN(C)/C=N\c1ncnc2c1ccn2C1OC(CO)C(O)C1O (stereo not drawn)
survivor count (dose: 12.5 mg/kg/injection, schedule: Q01DX005 (ip), vehicle: saline): 6 of 6
survivor count [4]: 4 of 6
survivor count (dose: 25.0 mg/kg/injection, schedule: Q01DX005 (ip), vehicle: saline): 3 of 6
survivor count [5]: 1 of 6
survivor count (dose: 50.0 mg/kg/injection, schedule: Q01DX005 (ip), vehicle: saline): 0 of 6
survivor count [6]: 1 of 6

C=C(NC(=O)C(=C)NC(=O)c1csc(C2=NC3c4csc(n4)C4NC(=O)c5csc(n5)C(C(C)(O)C(C)O)NC(=O)C5CSC(=N5)/C(=C/C)NC(=O)C(C(C)O)NC(=O)c5csc(n5)C3(CC2)NC(=O)C(C)NC(=O)C(=C)NC(=O)C(=C)NC(=O)C(C(C)C)NC2C=Cc3c(C(C)O)cc(nc3C2O)C(=O)OC4C)n1)C(N)=O (stereo not drawn)
T/C [4]: 127 % of control
T/C [5]: 135 % of control
T/C [6]: 132 % of control
T/C [7]: 132 % of control

CCC[CH2][Sn]1([CH2]CCC)[CH]=CCC=[C]1C
survivor count (dose: 50.0 mg/kg/injection, schedule: Q01DX009 (ip), vehicle: saline with Tween-80): 3 of 6
survivor count (dose: 100.0 mg/kg/injection, schedule: Q01DX009 (ip), vehicle: saline with Tween-80): 0 of 6
survivor count (dose: 200.0 mg/kg/injection, schedule: Q01DX009 (ip), vehicle: saline with Tween-80): 0 of 6
survivor count (dose: 400.0 mg/kg/injection, schedule: Q01DX009 (ip), vehicle: saline with Tween-80): 0 of 6

CC(=O)NNS(=O)(=O)c1ccccc1
survivor count [3]: 0 of 6

CCOC(=O)CC(=O)c1ccc(C(=O)CC(=O)O)cc1 (tested in a mixture with another compound)
survivor count [8]: 6 of 6

Cc1ncc(N)c2c1OC(C)(C)OC2
survivor count (dose: 100.0 mg/kg/injection, schedule: Q01DX001 (ip), vehicle: saline): 1 of 4
survivor count [9]: 1 of 4
survivor count [10]: 0 of 4

CN(C)CCC/C=N/Nc1ccc(Cl)cc1[N+](=O)[O-]
survivor count [8]: 0 of 6

COc1ccc(C(=O)NC[n+]2ccccc2)cc1
survivor count [7]: 5 of 6

C[N+](C)(C)CCS(=O)(=O)c1ccc(Cl)cc1
survivor count [11]: 0 of 3
survivor count [12]: 0 of 3

CC1(C)Cc2c(OC(N)=O)cccc2O1
survivor count (dose: 100.0 mg/kg/injection, schedule: Q01DX001 (ip), vehicle: Klucel (hydroxypropylcellulose) (HPC)): 0 of 6 and 2 of 6
survivor count (dose: 200.0 mg/kg/injection, schedule: Q01DX001 (ip), vehicle: Klucel (hydroxypropylcellulose) (HPC)): 0 of 6
survivor count [2]: 0 of 6

CC1(CCCc2ccc([N+](=O)[O-])cc2)N=C(N)N=C(N)N1c1ccccc1 (stereo not drawn)
survivor count (dose: 100.0 mg/kg/injection, schedule: Q04DX003 (ip), vehicle: Klucel (hydroxypropylcellulose) (HPC)): 4 of 6
survivor count (dose: 200.0 mg/kg/injection, schedule: Q04DX003 (ip), vehicle: Klucel (hydroxypropylcellulose) (HPC)): 1 of 6
survivor count [13]: 0 of 6

COC1=NS(=O)(=O)C=C(c2ccccc2)O1
survivor count (dose: 150.0 mg/kg/injection, schedule: Q04DX002 (ip), vehicle: Klucel (hydroxypropylcellulose) (HPC)): 0 of 3

CCSCN1CCN(CSCC)CC1
survivor count [10]: 0 of 6

CC(=O)OC1(C)CC(C)C(O)C(C(O)CC2CC(=O)NC(=O)C2)C1 (stereo not drawn)
survivor count (dose: 40.0 mg/kg/injection, schedule: Q01DX001 (ip), vehicle: water): 2 of 4

O=c1ccc2c(COc3ccc(Cl)cc3Cl)c3ccc(O)cc3oc-2c1
survivor count [13]: 3 of 6

O=C(O)c1ccc(Br)cc1.[Ni]
survivor count (dose: 100.0 mg/kg/injection, schedule: Q04DX002 (ip), vehicle: gum acacia): 1 of 3 and 3 of 3
survivor count (dose: 200.0 mg/kg/injection, schedule: Q04DX002 (ip), vehicle: gum acacia): 0 of 3
survivor count (dose: 400.0 mg/kg/injection, schedule: Q04DX002 (ip), vehicle: gum acacia): 0 of 3

CCCCCC(CN(C)C)C(O)CCc1ccc(Cl)c(Cl)c1 (stereo not drawn)
survivor count (dose: 100.0 mg/kg/injection, schedule: Q04DX002 (ip), vehicle: Klucel (hydroxypropylcellulose) (HPC)): 3 of 3

OC(C1CO1)(C(F)(F)F)C(F)(F)F (stereo not drawn)
survivor count [14]: 4 of 6

O=C(CCCCCCC(=O)C[N+]12CCC(CC1)C(O)C2)C[N+]12CCC(CC1)C(O)C2 (stereo not drawn)
survivor count (dose: 12.5 mg/kg/injection, schedule: Q04DX003 (ip), vehicle: saline): 0 of 6
survivor count (dose: 25.0 mg/kg/injection, schedule: Q04DX003 (ip), vehicle: saline): 0 of 6
survivor count (dose: 50.0 mg/kg/injection, schedule: Q04DX003 (ip), vehicle: saline): 0 of 6
survivor count (dose: 100.0 mg/kg/injection, schedule: Q04DX003 (ip), vehicle: saline): 0 of 6
survivor count [1]: 0 of 6
survivor count (dose: 400.0 mg/kg/injection, schedule: Q04DX003 (ip), vehicle: saline): 0 of 6

CC1=C(N)C(=O)C2=C(C1=O)N1CC3C(N3C)C1(O)C2COC(N)=O (stereo not drawn)
T/C (dose: 35.0 mg/kg/injection, schedule: Q01DX001 (ip), vehicle: acetone): 135 % of control

Fc1ccc(C(Cl)Cl)cc1
survivor count [1]: 6 of 6
survivor count [14]: 5 of 6

c1cc2c3c(c1)[I+]c1cccc(c1-3)[I+]2
survivor count [9]: 2 of 4
survivor count [10]: 0 of 4

CCOC(=O)c1ccc(NC(=O)N(C2CCCCC2)C2CCCCC2)cc1
survivor count (dose: 100.0 mg/kg/injection, schedule: Q04DX003 (ip), vehicle: saline with Tween-80): 6 of 6

O=C(Nc1cc(NC(=O)Nc2cccc(C3=NCCN3)c2)cc(C(=O)O)c1)Nc1cccc(C2=NCCN2)c1
survivor count (dose: 480.0 mg/kg/injection, schedule: Q01DX Z (ip), vehicle: carboxymethylcellulose (CMC)): 4 of 6

O=S(=O)(O)CS(=O)(=O)O.[Ag]
survivor count (dose: 80.0 mg/kg/injection, schedule: Q01DX001 (ip), vehicle: saline): 1 of 6

C1=N/C=C\C=C/c2ccc[n+](CCCCC[n+]3ccccc3-c3ccccn3)c21
survivor count (dose: 75.0 mg/kg/injection, schedule: Q01DX001 (ip), vehicle: saline): 0 of 6
survivor count (dose: 150.0 mg/kg/injection, schedule: Q01DX001 (ip), vehicle: saline): 0 of 6
survivor count (dose: 300.0 mg/kg/injection, schedule: Q01DX001 (ip), vehicle: saline): 0 of 6

O=C(C[n+]1ccccc1)c1ccccc1
survivor count [11]: 1 of 3
survivor count [12]: 0 of 3

COc1ccc(/C=C/C(C)=O)cc1OC
survivor count [5]: 6 of 6
survivor count [6]: 5 of 6
survivor count [7]: 6 of 6
survivor count (dose: 200.0 mg/kg/injection, schedule: Q01DX009 (ip), vehicle: saline): 6 of 6
survivor count [14]: 6 of 6

N=C(N)SCc1ccc([N+](=O)[O-])cc1
survivor count [10]: 0 of 4

S=C(NCc1ccco1)NCc1ccco1
survivor count (dose: 350.0 mg/kg/injection, schedule: Q01DX Z (ip), vehicle: methylcellulose (MC)): 1 of 6
